Literature values as cited in article PMC7248311, “Bisphenol A Diglycidyl Ether (BADGE) and Bisphenol Analogs, but Not Bisphenol A (BPA), Activate the CatSper Ca^2+ Channel in Human Sperm” (Frontiers in Endocrinology, 2020).

parameters: method as in PMID 30408212; details: human serum ref 50; cited from earlier work

Row | SMILES | Reported maximal human serum concentration
1 | Oc1ccc(C(c2ccc(O)cc2)(C(F)(F)F)C(F)(F)F)cc1 [BPAF, Bisphenol AF] | 0.05 µM
2 | CCC(C)(c1ccc(O)cc1)c1ccc(O)cc1 [BPB, Bisphenol B] | 0.59 µM
3 | CC(C)(c1ccc(OCC2CO2)cc1)c1ccc(OCC2CO2)cc1 (stereo not drawn) [BADGE, Bisphenol A diglycidyl ether] | 3.45 µM
